The source of these data is patent publication US20230009539A1.

The chains behind the UniProt entries cited, without tags or fusion partners.
UniProt O43734: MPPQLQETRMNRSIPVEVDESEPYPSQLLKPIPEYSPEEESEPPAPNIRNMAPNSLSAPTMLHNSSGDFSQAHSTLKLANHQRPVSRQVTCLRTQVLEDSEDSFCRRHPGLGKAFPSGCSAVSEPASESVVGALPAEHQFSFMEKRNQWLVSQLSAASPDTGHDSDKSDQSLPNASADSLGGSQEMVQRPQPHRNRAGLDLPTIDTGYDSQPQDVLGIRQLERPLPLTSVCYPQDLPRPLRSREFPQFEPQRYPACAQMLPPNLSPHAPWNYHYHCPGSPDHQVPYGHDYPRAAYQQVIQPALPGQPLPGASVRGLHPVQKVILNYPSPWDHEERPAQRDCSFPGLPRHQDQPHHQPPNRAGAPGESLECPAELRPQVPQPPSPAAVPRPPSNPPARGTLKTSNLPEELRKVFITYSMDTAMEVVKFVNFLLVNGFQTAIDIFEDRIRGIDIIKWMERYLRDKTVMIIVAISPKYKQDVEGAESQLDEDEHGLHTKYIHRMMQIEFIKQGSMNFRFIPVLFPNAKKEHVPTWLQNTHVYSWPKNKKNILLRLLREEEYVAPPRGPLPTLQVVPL

Results are given in words; binding and its absence hold for the method and conditions named. For some assays here: Binding seen in cells or lysates may run through a third protein. Some results given as binding are weak or reduced against the parent protein; the word gives no strength. For some assays here: Where a sequence is shown, tags or fusion partners need not be part of it.

Assay [1] deals with T1, Dcp1 (endogenous, MEFs) (mouse (MEFs)) (UniProt Q91YD3).
T1 sequence (looked up): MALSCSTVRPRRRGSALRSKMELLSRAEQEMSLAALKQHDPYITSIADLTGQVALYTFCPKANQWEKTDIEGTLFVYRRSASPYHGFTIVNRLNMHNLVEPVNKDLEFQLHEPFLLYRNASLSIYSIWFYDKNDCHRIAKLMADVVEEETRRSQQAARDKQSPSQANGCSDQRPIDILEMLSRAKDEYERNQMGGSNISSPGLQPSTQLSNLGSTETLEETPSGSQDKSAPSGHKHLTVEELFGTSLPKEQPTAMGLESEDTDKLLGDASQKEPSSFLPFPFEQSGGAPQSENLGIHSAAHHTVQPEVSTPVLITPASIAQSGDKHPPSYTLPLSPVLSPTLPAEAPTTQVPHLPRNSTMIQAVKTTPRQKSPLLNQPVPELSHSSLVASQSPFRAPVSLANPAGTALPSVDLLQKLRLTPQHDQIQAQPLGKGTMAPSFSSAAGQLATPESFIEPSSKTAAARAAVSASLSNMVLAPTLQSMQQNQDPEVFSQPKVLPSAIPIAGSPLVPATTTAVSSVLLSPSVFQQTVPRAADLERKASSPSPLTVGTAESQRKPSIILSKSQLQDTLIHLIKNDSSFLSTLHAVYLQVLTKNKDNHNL
As to the kind of experiment: co-immunoprecipitation with anti-FLAG from Act1-/- MEFs reconstituted with FLAG-Act1 WT, IL-17 lanes 0, .5, 1, 2, 3 (sheet prints 'min'), Western blot.

Assay [2] addresses T2, IKKi (endogenous, MEFs) (mouse (MEFs)) (UniProt Q9R0T8).
T2 sequence (looked up): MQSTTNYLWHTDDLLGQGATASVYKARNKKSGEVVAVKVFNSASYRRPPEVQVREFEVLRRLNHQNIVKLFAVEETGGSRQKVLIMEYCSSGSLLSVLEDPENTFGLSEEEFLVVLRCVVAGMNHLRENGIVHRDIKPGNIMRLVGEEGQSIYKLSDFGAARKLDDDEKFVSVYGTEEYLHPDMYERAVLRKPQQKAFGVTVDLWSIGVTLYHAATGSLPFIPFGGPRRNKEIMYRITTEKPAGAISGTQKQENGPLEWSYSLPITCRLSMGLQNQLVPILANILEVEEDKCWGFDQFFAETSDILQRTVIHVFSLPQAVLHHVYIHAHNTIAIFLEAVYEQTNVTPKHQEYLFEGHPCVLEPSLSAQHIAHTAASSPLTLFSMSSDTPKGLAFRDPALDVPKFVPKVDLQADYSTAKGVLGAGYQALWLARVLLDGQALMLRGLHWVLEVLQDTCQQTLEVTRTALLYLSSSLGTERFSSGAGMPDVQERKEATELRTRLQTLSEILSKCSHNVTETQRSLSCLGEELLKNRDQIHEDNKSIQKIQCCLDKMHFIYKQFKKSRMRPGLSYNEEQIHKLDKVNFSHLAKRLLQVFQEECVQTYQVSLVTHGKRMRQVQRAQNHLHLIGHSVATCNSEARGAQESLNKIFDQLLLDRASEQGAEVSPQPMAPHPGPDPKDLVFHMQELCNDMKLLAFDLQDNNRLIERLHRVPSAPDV
The assay is described as follows: co-immunoprecipitation with anti-FLAG from cytoplasmic and nuclear fractions of Act1-/- MEFs with FLAG-Act1 WT, IL-17 lanes 0, 30, 60, 180 (unit not given), Western blot. (In western blotting, separated proteins are transferred to a membrane and probed.)

Assay [3] addresses T3, TBK1 (endogenous, MEFs) (mouse (MEFs)) (UniProt Q9WUN2).
T3 sequence (looked up): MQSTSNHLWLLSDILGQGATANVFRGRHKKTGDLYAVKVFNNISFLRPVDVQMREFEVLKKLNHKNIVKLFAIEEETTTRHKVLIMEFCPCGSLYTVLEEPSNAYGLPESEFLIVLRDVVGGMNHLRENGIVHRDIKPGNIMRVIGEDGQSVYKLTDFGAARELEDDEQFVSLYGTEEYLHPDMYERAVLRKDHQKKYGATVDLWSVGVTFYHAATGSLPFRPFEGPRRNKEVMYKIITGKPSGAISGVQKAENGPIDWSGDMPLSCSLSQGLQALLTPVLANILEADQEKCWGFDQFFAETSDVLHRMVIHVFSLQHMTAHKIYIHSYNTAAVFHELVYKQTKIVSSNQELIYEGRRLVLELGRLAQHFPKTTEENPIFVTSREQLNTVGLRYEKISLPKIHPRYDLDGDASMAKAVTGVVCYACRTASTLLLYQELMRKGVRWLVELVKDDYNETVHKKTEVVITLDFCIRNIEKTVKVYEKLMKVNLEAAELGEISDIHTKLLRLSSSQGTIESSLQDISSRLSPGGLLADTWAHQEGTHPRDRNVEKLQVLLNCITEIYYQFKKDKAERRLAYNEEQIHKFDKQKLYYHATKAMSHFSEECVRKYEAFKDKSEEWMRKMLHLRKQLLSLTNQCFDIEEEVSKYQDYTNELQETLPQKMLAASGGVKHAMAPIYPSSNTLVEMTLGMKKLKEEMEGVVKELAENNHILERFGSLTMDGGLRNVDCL
The assay is described as above.

In assay [4] the target is T1, Dcp1 (endogenous, MEFs) (mouse (MEFs)). As to the kind of experiment: co-immunoprecipitation with anti-Dcp1 from untreated and IL-17-treated Act1-expressing MEFs.
Assay [5] concerns the target T3, TBK1 (endogenous, MEFs) (mouse (MEFs)). As to the kind of experiment: co-immunoprecipitation with anti-TBK1 from Act1-/- MEFs reconstituted with wild-type Act1, IL-17 0, 15, 30, 60 min, Western blot.
For assay [6] the target is unchanged. The assay is described as follows: co-immunoprecipitation of Act1 from MEFs, IL17 0, 15, 30, 60, 180 min, with DMSO or the inhibitor MRT67307, Western blot.
The target in assay [7] is T1, Dcp1 (endogenous, MEFs) (mouse (MEFs)). The description is as above.
The target is the same in assay [8]. As to the kind of experiment: anti-Act1 immunoprecipitation from MEFs, IL-17, with or without MRT67307 (FIG. 4H).
Assay [9] addresses FLAG-hDcp2 (human), Q8IU60. As to the kind of experiment: anti-FLAG co-immunoprecipitation from HeLa cells transfected with V5-Dcp1, FLAG-Dcp2 and/or HA-TBK1 (FIG. 4G). As to conditions: remark: other sources report otherwise.
Assay [10] deals with FLAG-hDcp2 (human), Q8IU60. As to the kind of experiment: co-immunoprecipitation with anti-FLAG from HeLa cells transfected with V5-Dcp1, FLAG-Dcp2 and rising HA-TBK1, V5 blot. As to conditions: remark: other sources report otherwise.
The target of a further assay is FLAG-hAct1 (human) (UniProt O43734). The assay is described as follows: co-purification on anti-FLAG/M2 beads from transfected HeLa cells, Western blot.

B1: FLAG-tagged mouse wild-type Act1 (WT) (protein, UniProt Q8N7N6 1-555, looked up, not shown: small tags and cut ends)
chain: MNRSIPVEVDESEPFPSQLLKPIPEYSPEEELEPPAPNTRNMAPSSLSVLQCPPLKLANHQPVSQQVTCLRAKVLEEGEASFFRRHPELGKDISSCSSGASEPESELGALPPEHRFTLTEKRNRWLGSQLSAASPDTGHESDKSDPSLPNALADSFSGGQEMMPRPRPRPGPHRHRAAPDVPTIDTGYDSQPQDVLGIRQLERPLPLTSSCYLQDLPGPLRSRELPPQFELERYPMNAQLLPPHPSPQAPWNCQYYCPGGPYHHQVPHGHGYPPAAAYQQVLQPALPGQVLPGARARGPRPVQKVILNDSSPQDQEERPAQRDFSFPRLPRDQLYRPPSNGVEAPEESLDLPAELRPHGPQAPSLAAVPRPPSNPLARGTLRTSNLPEELRKVFITYSMDTAMEVVKFVNFLLVNGFQTAIDIFEDRIRGIDIIKWMERYLRDKTVMIIVAISPKYKQDVEGAESQLDEDEHGLHTKYIHRMMQIEFISQGSMNFRFIPVLFPNAKKEHVPTWLQNTHVYSWPKNKKNILLRLLREEEYVAPPRGPLPTLQVVPL
Consider B1, for which the binding entry in [1], in [2], in assay [3], in [4] and in [5] was “binds” each time.

B2: Act1 (MEFs, immunoprecipitated with anti-Act1) (protein, mouse (MEFs), UniProt Q8N7N6 1-555, looked up)
chain: B1 chain
Turning to B2, the binding entry in assay [6], in assay [7] and in assay [8] was “binds” each time.

B3: V5-hDcp1a, Q9NPI6 1-582 (enzyme, human, UniProt Q9NPI6 1-582, looked up, not shown: small tags and cut ends)
chain: MEALSRAGQEMSLAALKQHDPYITSIADLTGQVALYTFCPKANQWEKTDIEGTLFVYRRSASPYHGFTIVNRLNMHNLVEPVNKDLEFQLHEPFLLYRNASLSIYSIWFYDKNDCHRIAKLMADVVEEETRRSQQAARDKQSPSQANGCSDHRPIDILEMLSRAKDEYERNQMGDSNISSPGLQPSTQLSNLGSTETLEEMPSGSQDKSAPSGHKHLTVEELFGTSLPKEQPAVVGLDSEEMERLPGDASQKEPNSFLPFPFEQLGGAPQSETLGVPSAAHHSVQPEITTPVLITPASITQSNEKHAPTYTIPLSPVLSPTLPAEAPTAQVPPSLPRNSTMMQAVKTTPRQRSPLLNQPVPELSHASLIANQSPFRAPLNVTNTAGTSLPSVDLLQKLRLTPQHDQIQTQPLGKGAMVASFSPAAGQLATPESFIEPPSKTAAARVAASASLSNMVLAPLQSMQQNQDPEVFVQPKVLSSAIPVAGAPLVTATTTAVSSVLLAPSVFQQTVTRSSDLERKASSPSPLTIGTPESQRKPSIILSKSQLQDTLIHLIKNDSSFLSTLHEVYLQVLTKNKDNHNL
On to B3, for which the binding result in assay [9] and in assay [10] was “binds” in each case.

B4: TBK1 (endogenous, HeLa cells) (enzyme, human (HeLa cells), UniProt Q9UHD2 1-729, looked up)
chain: MQSTSNHLWLLSDILGQGATANVFRGRHKKTGDLFAIKVFNNISFLRPVDVQMREFEVLKKLNHKNIVKLFAIEEETTTRHKVLIMEFCPCGSLYTVLEEPSNAYGLPESEFLIVLRDVVGGMNHLRENGIVHRDIKPGNIMRVIGEDGQSVYKLTDFGAARELEDDEQFVSLYGTEEYLHPDMYERAVLRKDHQKKYGATVDLWSIGVTFYHAATGSLPFRPFEGPRRNKEVMYKIITGKPSGAISGVQKAENGPIDWSGDMPVSCSLSRGLQVLLTPVLANILEADQEKCWGFDQFFAETSDILHRMVIHVFSLQQMTAHKIYIHSYNTATIFHELVYKQTKIISSNQELIYEGRRLVLEPGRLAQHFPKTTEENPIFVVSREPLNTIGLIYEKISLPKVHPRYDLDGDASMAKAITGVVCYACRIASTLLLYQELMRKGIRWLIELIKDDYNETVHKKTEVVITLDFCIRNIEKTVKVYEKLMKINLEAAELGEISDIHTKLLRLSSSQGTIETSLQDIDSRLSPGGSLADAWAHQEGTHPKDRNVEKLQVLLNCMTEIYYQFKKDKAERRLAYNEEQIHKFDKQKLYYHATKAMTHFTDECVKKYEAFLNKSEEWIRKMLHLRKQLLSLTNQCFDIEEEVSKYQEYTNELQETLPQKMFTASSGIKHTMTPIYPSSNTLVEMTLGMKKLKEEMEGVVKELAENNHILERFGSLTMDGGLRNVDCL
On to B4, for which the binding entry in the assay with FLAG-hAct1 (human) is listed as “binds”.
